Assay results from article PMC5648251.
No constants are given. Whether binding was seen depends on the method and setting. In cells and extracts the contact can be indirect. Some entries that bind do so weakly or less than the wild type.

By UniProt entry, the sequences of proteins in these tests, tags left out. Where a name states a change or a piece, a line headed by the entry shows the natural chain unless it says otherwise. Residues count along the entry.
UniProt Q09472: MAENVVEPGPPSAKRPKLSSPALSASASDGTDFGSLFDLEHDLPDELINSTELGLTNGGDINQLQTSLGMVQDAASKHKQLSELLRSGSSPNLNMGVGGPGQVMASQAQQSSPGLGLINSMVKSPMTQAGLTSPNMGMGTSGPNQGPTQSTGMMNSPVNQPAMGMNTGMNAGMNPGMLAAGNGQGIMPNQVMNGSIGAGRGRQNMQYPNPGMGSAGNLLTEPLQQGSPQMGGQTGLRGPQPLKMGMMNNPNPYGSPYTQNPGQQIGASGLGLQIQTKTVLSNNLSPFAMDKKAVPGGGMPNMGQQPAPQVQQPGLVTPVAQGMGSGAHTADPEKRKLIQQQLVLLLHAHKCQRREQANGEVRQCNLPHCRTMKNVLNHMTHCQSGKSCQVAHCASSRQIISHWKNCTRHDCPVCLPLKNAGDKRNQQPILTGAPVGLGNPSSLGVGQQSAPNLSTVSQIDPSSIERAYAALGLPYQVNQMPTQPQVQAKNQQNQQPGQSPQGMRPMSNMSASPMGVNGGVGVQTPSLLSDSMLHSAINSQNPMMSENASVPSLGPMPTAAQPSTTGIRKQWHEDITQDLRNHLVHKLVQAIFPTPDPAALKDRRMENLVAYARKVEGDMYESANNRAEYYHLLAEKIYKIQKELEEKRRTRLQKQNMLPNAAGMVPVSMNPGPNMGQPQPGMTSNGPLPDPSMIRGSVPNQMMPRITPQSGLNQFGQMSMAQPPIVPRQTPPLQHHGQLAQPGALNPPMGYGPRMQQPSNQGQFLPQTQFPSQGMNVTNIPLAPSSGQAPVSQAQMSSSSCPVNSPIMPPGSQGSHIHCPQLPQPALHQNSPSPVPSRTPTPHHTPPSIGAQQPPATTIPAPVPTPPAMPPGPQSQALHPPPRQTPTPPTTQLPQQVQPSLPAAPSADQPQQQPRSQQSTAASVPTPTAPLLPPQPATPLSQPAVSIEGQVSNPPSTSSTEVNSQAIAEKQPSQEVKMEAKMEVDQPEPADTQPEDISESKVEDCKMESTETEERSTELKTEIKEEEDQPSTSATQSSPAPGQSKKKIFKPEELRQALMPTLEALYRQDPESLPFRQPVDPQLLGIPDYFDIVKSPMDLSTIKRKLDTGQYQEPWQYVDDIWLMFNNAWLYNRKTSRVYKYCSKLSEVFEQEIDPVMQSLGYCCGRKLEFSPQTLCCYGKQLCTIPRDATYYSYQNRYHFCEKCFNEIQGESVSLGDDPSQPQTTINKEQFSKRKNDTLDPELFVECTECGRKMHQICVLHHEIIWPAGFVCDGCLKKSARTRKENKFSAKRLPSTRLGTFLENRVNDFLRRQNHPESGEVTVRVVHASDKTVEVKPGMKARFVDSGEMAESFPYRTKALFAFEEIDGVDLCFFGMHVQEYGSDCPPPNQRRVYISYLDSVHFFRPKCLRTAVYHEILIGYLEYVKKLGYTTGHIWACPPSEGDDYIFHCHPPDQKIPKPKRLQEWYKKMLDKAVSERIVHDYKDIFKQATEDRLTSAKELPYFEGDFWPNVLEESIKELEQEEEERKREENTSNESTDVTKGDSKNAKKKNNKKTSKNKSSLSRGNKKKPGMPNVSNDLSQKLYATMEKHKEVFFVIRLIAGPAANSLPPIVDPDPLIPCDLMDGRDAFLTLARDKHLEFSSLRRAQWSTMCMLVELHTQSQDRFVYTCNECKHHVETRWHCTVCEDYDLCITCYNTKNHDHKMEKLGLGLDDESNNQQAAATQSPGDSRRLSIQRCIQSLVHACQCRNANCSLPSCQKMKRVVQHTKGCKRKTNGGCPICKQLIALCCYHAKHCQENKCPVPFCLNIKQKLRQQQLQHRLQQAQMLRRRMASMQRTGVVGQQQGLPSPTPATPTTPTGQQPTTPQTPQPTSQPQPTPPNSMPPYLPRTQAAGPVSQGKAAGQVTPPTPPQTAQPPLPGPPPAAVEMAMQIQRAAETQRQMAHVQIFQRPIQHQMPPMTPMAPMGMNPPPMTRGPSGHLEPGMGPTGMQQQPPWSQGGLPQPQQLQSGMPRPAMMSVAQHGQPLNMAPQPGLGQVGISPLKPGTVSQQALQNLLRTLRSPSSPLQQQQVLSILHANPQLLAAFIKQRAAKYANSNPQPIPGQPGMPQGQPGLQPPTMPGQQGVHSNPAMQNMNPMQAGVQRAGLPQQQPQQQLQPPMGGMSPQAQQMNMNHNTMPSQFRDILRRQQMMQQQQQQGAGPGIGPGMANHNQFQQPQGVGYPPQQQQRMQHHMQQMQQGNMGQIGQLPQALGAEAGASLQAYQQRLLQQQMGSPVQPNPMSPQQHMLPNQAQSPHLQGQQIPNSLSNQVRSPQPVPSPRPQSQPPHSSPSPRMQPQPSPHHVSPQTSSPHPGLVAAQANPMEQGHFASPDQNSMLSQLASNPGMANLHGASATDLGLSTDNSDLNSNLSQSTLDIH
Flag-p300-4 (domain corresponding to the gene sequence from 1069 to 2414 of p300): residues 1069-2414 of Q09472
UniProt P13010: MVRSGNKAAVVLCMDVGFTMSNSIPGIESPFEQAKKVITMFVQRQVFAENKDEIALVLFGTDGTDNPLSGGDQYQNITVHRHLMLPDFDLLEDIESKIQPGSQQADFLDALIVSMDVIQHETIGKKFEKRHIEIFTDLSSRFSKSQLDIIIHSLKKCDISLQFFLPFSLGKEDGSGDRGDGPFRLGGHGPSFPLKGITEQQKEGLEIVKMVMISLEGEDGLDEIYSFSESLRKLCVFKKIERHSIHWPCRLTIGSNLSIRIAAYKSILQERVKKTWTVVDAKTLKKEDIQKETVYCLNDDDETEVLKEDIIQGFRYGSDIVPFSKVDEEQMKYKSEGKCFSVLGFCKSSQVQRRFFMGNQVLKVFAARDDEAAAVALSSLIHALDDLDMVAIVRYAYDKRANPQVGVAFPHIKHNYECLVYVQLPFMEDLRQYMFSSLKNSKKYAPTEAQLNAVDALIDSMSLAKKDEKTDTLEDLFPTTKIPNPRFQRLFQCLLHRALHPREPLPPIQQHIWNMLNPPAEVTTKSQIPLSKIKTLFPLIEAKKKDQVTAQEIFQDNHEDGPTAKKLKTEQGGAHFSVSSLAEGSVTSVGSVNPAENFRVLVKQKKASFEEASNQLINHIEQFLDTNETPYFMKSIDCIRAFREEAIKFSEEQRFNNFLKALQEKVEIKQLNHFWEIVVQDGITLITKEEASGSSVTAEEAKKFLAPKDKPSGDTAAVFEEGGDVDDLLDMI

Assays:
[1] = biological target: Flag-p300-4 (domain corresponding to the gene sequence from 1069 to 2414 of p300) (UniProt Q09472); experiment: co-IP; LoVo cells transfected with flag-tagged p300 domain vectors for 48 hours; nuclear extracts immunoprecipitated with anti-flag tag antibody, blotted with an antibody against XRCC5
[2] = biological target: p300 (a transcription co-activator) (human (endogenous in RKO, LoVo and SW480)) (UniProt Q09472); experiment: co-IP; nuclear extracts of RKO, LoVo and SW480 cells; rabbit anti-XRCC5 or anti-p300 antibody at 4°C overnight, protein A/G agarose beads, washed with ice-cold PBS; Western blot for the other protein; non immune rabbit IgG as control
[3] = biological target: X-ray repair cross-complementing protein 5 (XRCC5) (human (endogenous in RKO, LoVo and SW480)) (UniProt P13010); experiment: as above

With “X-ray repair cross-complementing protein 5 (XRCC5) (from UniProt P13010 1-732)” the binding [1] was “binds” and the binding [2] was “binds”.

In the case of “p300 (a transcription co-activator) (from UniProt Q09472 1-2414)”, the binding [3] is reported as “binds”.
